Reference: PubChem BioAssay AID504467 (National Center for Advancing Translational Sciences (NCATS), 2011)
About 7,700 (2.3%) of roughly 330,000 compounds were called active. The shares of active, inactive and inconclusive entries below differ from those in the screen. Calls follow the shape of the dose curve; as a rule, active = well fitted inhibition curve with a large enough effect; inconclusive = small, poorly fitted or top-dose-only effect, or effect the other way; inactive = flat fitted curve, though single readings scatter. Potencies beside an inconclusive call are fits to weak or partial responses and may not hold up.

Assay: qHTS screen for small molecules that inhibit ELG1-dependent DNA repair in human embryonic kidney (HEK293T) cells expressing luciferase-tagged ELG1; also: nearly all actives have a fitted effect of over 55% in size
Conditions: HEK293T ELG1-luciferase reporter, luminescence, 16 h, DNA damage induced by 5-fluorouridine; series mostly up to 46.1 µM
Method in brief: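 Luminescence from the luciferase reporter, measured 30 min after ONE-Glo reagent at room temperature, was the read-out. Beforehand, 2,000 cells per well were exposed for 16 hr at 37 °C to 5-fluorouridine together with compound or vehicle.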
Potency is read from the fitted curve at half-maximal effect.

Compound	Potency
CCn1cc(C(=O)N2CCCC(N3CCN(c4cccc(C(F)(F)F)c4)CC3)C2)cn1 (configuration not stated)	inactive
CC(C)C[C@@H]1NC(=O)[C@H](CO)NC(=O)c2cc([N+](=O)[O-])cc(I)c2OCC[C@@H](C(N)=O)NC1=O	inactive
CCCCCn1c(N)c(-c2nc3ccccc3o2)c2c([N+](=O)[O-])nn(CC)c(=O)c21	inconclusive: 3.26 µM [inhibitor, single point]
C/C(=N\NC(=O)CCCNc1ccc(C)cc1)c1ccccn1	inactive
COc1ccc(OS(=O)(=O)Cc2ccccc2)cc1	inconclusive: 20.6 µM [activator, partial curve]
CC(=O)Nc1ccc(N2CCCCC2)c(C(=O)Nc2cccc(C)c2)c1	inconclusive: 3.98 µM [inhibitor, partial curve, poor fit]
Cc1ccc(CNS(=O)(=O)c2ccc3c(c2)C(C)(C)C(=O)N3C)cc1	inactive
COc1cccc(NC(=O)Nc2ccc(Cc3ccncc3)cc2)c1	inactive
CS(=O)(=O)N1N=C(c2ccc(Br)cc2)CC1c1ccc2c(c1)OCO2 (configuration not stated)	inconclusive: 10.3 µM [activator, partial curve]
C/C(=N\NS(=O)(=O)c1ccc(Cl)cc1)c1ccc(NC(=O)c2ccco2)cc1	inconclusive: 18.4 µM [activator, partial curve]
CC(C)C(OC(=O)CN1C(=O)c2ccccc2C1=O)C(=O)NC1CCCCC1 (configuration not stated)	inactive
CCCCN1Cc2cc(C(=O)c3cc(F)ccc3O)cnc2NC1=O	inconclusive: 29.1 µM [inhibitor, single point]
Cc1cccc(S(=O)(=O)Nc2cccc3c2C(=O)c2ccccc2-3)c1	inactive
COc1ccc(NC(=O)Nc2cccc3ccccc23)cc1OC	inactive
CC1(C)C2CCC(C2)C1(C)NC(=O)CN1CCN(Cc2ccccc2)CC1 (configuration not stated)	inconclusive: 20.6 µM [inhibitor, partial curve, poor fit]
COC(=O)c1c(NC(C)=O)sc(C(=O)Nc2ccccc2)c1C	inconclusive: 23.1 µM [activator, partial curve]
Cc1ccc(CNC(=O)c2cn(C3CCCCC3)c(=O)c3c2c2ccccc2n3C)o1	inconclusive: 18.4 µM [inhibitor, single point]
CCN(CC)S(=O)(=O)c1ccc(-c2nnc3sc4cccc(C)c4n23)cc1	active: 23.1 µM
Cc1nc2ccccn2c1C(=O)N=Nc1c(O)n(CCC(C)C)c2ccccc12	active: 9.2 µM
CCn1c(=O)c(C(=O)CN2c3ccccc3CC2C)c(N)n(Cc2ccccc2)c1=O (configuration not stated)	inconclusive: 29.1 µM [inhibitor, single point]
COc1cccc(-c2cc(N3C(=O)Nc4ccccc4N3O)n[nH]2)c1	inconclusive: 20.6 µM [activator, partial curve, poor fit]
Cc1ccn2cc(-c3cnoc3C)nc2c1	inconclusive: 18.4 µM [activator, partial curve]
CC[N+](C)(C)CCN(Cc1ccc(Cl)cc1)c1ccccn1	inactive
COc1ccccc1NS(=O)(=O)c1ccc(-c2cnc(C3CC3)o2)cc1	inconclusive: 0.58 µM [inhibitor, single point]

Filtered by structure: those above containing a halogen.
Compound	Potency
CCn1cc(C(=O)N2CCCC(N3CCN(c4cccc(C(F)(F)F)c4)CC3)C2)cn1 (configuration not stated)	inactive
CC(C)C[C@@H]1NC(=O)[C@H](CO)NC(=O)c2cc([N+](=O)[O-])cc(I)c2OCC[C@@H](C(N)=O)NC1=O	inactive
CS(=O)(=O)N1N=C(c2ccc(Br)cc2)CC1c1ccc2c(c1)OCO2 (configuration not stated)	inconclusive: 10.3 µM [activator, partial curve]
C/C(=N\NS(=O)(=O)c1ccc(Cl)cc1)c1ccc(NC(=O)c2ccco2)cc1	inconclusive: 18.4 µM [activator, partial curve]
CCCCN1Cc2cc(C(=O)c3cc(F)ccc3O)cnc2NC1=O	inconclusive: 29.1 µM [inhibitor, single point]
CC[N+](C)(C)CCN(Cc1ccc(Cl)cc1)c1ccccn1	inactive

Continuation.

Compound	Potency
O=C1Nc2ccccc2/C1=C\C(=O)c1ccccc1	inconclusive: 23.1 µM [activator, single point]
O=C(Cn1c(=O)sc2ccccc21)NCc1ccccn1	inconclusive: 23.1 µM [activator, partial curve]
COc1ccc(-c2ccc(N)cn2)cn1	inconclusive: 14.6 µM [activator, partial curve, poor fit]
Nc1nc(-c2cccnc2)nc2sc3c(c12)CCCC3	inconclusive: 9.2 µM [activator, partial curve]
COC(=O)C1(CO)NC(c2ccc(C)cc2)C2C(=O)N(c3ccccc3)C(=O)C21 (configuration not stated)	inactive
Cn1c(N2CCN(C(=O)NCc3ccccc3)CC2)nc2ccccc21	inactive
Cc1cc(N2CCCC2)ccc1NC(=O)COc1ccccc1	inconclusive: 7.3 µM [inhibitor, partial curve]
O=C(CCN1C(=O)c2ccccc2S1(=O)=O)Nc1ccccc1O	inactive
C=CCNc1oc(COc2ccc(C)cc2)nc1C#N	inconclusive: 23.1 µM [activator, single point]
CCOC(=O)Nc1sc(C)nc1-c1ccccc1	inconclusive: 20.6 µM [activator, partial curve, poor fit]
CCSc1nc(=S)n(Cc2ccccc2)c(C)c1C(C)=O	inconclusive: 2.59 µM [inhibitor, partial curve]
N#C/C(=C\c1ccc(Cl)cc1)c1nc2ccccc2o1	inconclusive: 16.4 µM [activator, single point]
COc1ccc(N(C(=O)CNC(=O)c2ccco2)C(C(=O)NC2CCCC2)c2ccco2)cc1 (configuration not stated)	inactive
Cn1c(-c2c(N)n(CCCc3ccccc3)c3nc4ccccc4nc23)nc2ccccc21	inconclusive: 10 µM [inhibitor, partial curve, poor fit]
Cc1ccc(NC(=O)Cn2ccc([N+](=O)[O-])n2)cc1Cl	inconclusive: 32.6 µM [activator, partial curve, poor fit]
Cc1nc(CCNC(=O)C2CCC(=O)N(Cc3cccc(F)c3)C2)sc1C (configuration not stated)	inactive
CC(=O)c1c(C)[nH]c(C(=O)COC(=O)c2cc(C)oc2C)c1C	inactive
O=C1CCN(CCc2ccccc2)CCN1CCSc1ccccc1	inconclusive: 8.2 µM [activator, partial curve]
CCN(CC)S(=O)(=O)c1cccc(C(=O)NCC2CCCO2)c1 (configuration not stated)	inactive
Cc1ccc(NC(=O)C(=O)NC2CCCCC2)cc1	inconclusive: 2.59 µM [activator, partial curve]
COC(=O)c1ccc(CSc2nc3c(c(=O)n2-c2ccc(C)cc2)SCC3)o1	inconclusive: 29.1 µM [inhibitor, single point]
Cc1c(O)c(C)c2c(c1O)C(=O)C[C@@H](c1ccccc1)O2	inactive
O=C(NCc1ccco1)c1sc2cc(F)ccc2c1Cl	inconclusive: 18.4 µM [activator, single point]
C/C(=N\Nc1ccc(C(F)(F)F)cc1[N+](=O)[O-])C1CC1	inconclusive: 25.9 µM [activator, single point]

Compound	Potency
CC1CCN(C(=O)CSc2nnc(CNC(=O)c3c(F)cccc3F)o2)CC1	inactive
O=C(Nc1cccnc1)Nc1cccc([N+](=O)[O-])c1	inactive
O=C(Nc1nc(-c2ccc(F)cc2)cs1)C1CCCO1 (configuration not stated)	inconclusive: 20.6 µM [activator, partial curve]
CCC1CCCCN1CCCNC(=O)c1ccc2c(c1)c(C)c(C)n2CC (configuration not stated)	inactive
CC(Cc1ccccc1)NC(=S)CN1CCCC1=S (configuration not stated)	inconclusive: 23.1 µM [inhibitor, single point]
Cc1cc(NC(=O)c2ccc(F)c(S(=O)(=O)N3CCCCC3)c2)no1	inconclusive: 9.2 µM [inhibitor, partial curve, poor fit]
CCCN1CCN(S(=O)(=O)c2ccc3c(c2)NC(=O)C(C)S3)CC1 (configuration not stated)	inactive
COc1cc(CNc2ccc(O)cc2)cc(Br)c1OCc1ccccc1	inconclusive: 10.3 µM [inhibitor, partial curve, poor fit]
CC(=NC1CCCC1)c1c(C)[nH]n(-c2nc3ccccc3s2)c1=O	inconclusive: 2.59 µM [activator, partial curve]
Nc1c(C(=O)N/N=C/c2cccnc2)cnn1-c1ccccc1	inconclusive: 10.3 µM [activator, partial curve, poor fit]
COc1ccc(-c2cc(C(=O)NN)[nH]n2)cc1OC	inactive
Cc1ccc(NC(=O)C2CCC(=O)N2C(=O)OCc2ccccc2)cc1 (configuration not stated)	inconclusive: 29.1 µM [activator, single point]
Cc1ccc(N2CCN(C(=O)c3cc(C(=O)c4ccccc4C)c[nH]3)CC2)c(C)c1	inconclusive: 20.6 µM [inhibitor, partial curve]
Cc1cc(C)cc(OCC(=O)O/N=C(\N)c2ccccc2Cl)c1	inconclusive: 13 µM [activator, partial curve]
C[C@@H](NC(=O)[C@@H]1Cc2ccccc2CN1)C(=O)NCC1CCCO1 (some centres not stated)	inconclusive: 16.4 µM [activator, partial curve, poor fit]
Cc1ccc(S(=O)(=O)N(CCC(=O)O)c2ccccc2)cc1	inactive
CC(=O)Nc1ccc(C(=O)Nc2cc(C)on2)cc1	inconclusive: 20.6 µM [activator, partial curve]
Cc1ccc(C)c(NC(=O)c2ccccc2NS(=O)(=O)c2cc([N+](=O)[O-])ccc2C)c1	inconclusive: 4.61 µM [inhibitor, partial curve]
CCCCCC(=O)N/N=C(\C)c1ccc(N2CCCCC2)cc1	inconclusive: 25.9 µM [activator, single point]
COc1cccc(C2CC(c3ccc(C)cc3)=NN2C(=O)c2ccccc2F)c1OC (configuration not stated)	inconclusive: 29.1 µM [inhibitor, single point]
Cc1cc(C)nc(SC2CC(=O)N(c3ccc(Cl)cc3)C2=O)n1 (configuration not stated)	inactive
CC(=O)N(c1ccc(Cl)cc1)c1nc(C)cc(C)c1C#N	inactive
O=C1CCC2(CC1)NC(=O)N(c1ccccc1)N2	inconclusive: 20.6 µM [inhibitor, single point]
N#C/C(=C\Nc1ccccc1SC(F)(F)F)c1nc(-c2ccccc2)cs1	inconclusive: 23.1 µM [activator, single point]
